Reference: PubChem BioAssay AID1487 (National Center for Advancing Translational Sciences (NCATS), 2009)
Values joined by “and” are separate entries in the source; they are usually repeats but may differ in a detail not shown here. Equal entries are not always repeated. The list shows a part of the results. Shown are side measurements of this screen, not its main read-out; they come without a call. Compounds called inactive in the main read-out are mostly missing here. Potencies come from curve fits of mixed quality, noted in brackets.

Assay: qHTS Assay for Modulators of Lamin A Splicing
Details: HeLa LMNA splicing GFP/RFP minigene ratio, 48 h
Outline: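 S3 HeLa stable clones carrying a lamin A-EGFP splicing minigene plus DsRed2 were seeded at 600 cells/well in Opti-MEM with 2% FBS, pin-dosed and incubated 48 h at 37°C. Acumen cytometry (488 nm) gave the GFP/RFP total-intensity ratio.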

[1] = measured here: RFP viability control channel
[2] = measured here: GFP splicing reporter channel

Structure (SMILES) | AC50 [1] | AC50 [2]
COc1cc(/C=N/n2nnnc2Nc2ccccc2)cc(OC)c1OC | 14.1 µM [rising, single point] | 
C=CCSc1nc2ccccc2n1C(=O)/C=C/c1ccc(OC)c(OC)c1 | 3.98 µM [falling, full curve] | 5.62 µM [falling, full curve]
CCCS(=O)(=O)N1CCN(C(=O)c2ccc(-c3ccccc3)cc2)CC1 | 25.1 µM [rising, single point] | 
Fc1cc(Br)ccc1NC(=S)Nc1cccnc1 |  | 0.708 µM [falling, partial curve, poor fit]
O=C(CCC(=O)OCC(F)(F)C(F)F)NCc1ccccc1 | 3.55 µM [rising, single point] | 
O=C1CC(=C(c2ccccc2)c2ccccc2)C(=O)N1CCCN1CCN(c2cccc(Cl)c2)CC1 | 11.2 µM [rising, partial curve, poor fit] | 10 µM [rising, partial curve, poor fit]
COc1ccc(CCNC(=O)c2ccc(CNS(=O)(=O)c3cc(C)ccc3C)cc2)cc1OC | 14.1 µM [rising, single point] | 
O=C(NCc1ccccn1)C1CC(c2ccccc2Cl)=NO1 (stereo unspecified) | 1.12 µM [falling, full curve, poor fit] | 
COc1ccc(NS(=O)(=O)c2cc(OCC(N)=O)c(C)cc2Cl)cc1 | 10 µM [rising, single point] | 
Cc1ccc(Cl)cc1NC(=O)C(=O)NCC(c1cccnc1)N1CCc2ccccc21 (stereo unspecified) | 20 µM [rising, single point] | 
COc1ccc(-c2csc(NC(=O)COc3ccc(N(C)S(=O)(=O)c4ccc(C)cc4)cc3)n2)cc1 | 10 µM [rising, partial curve] | 11.2 µM [rising, partial curve]
O=c1c2ccccc2nc2c3ccccc3c(NCCN3CCOCC3)nn12 | 35.5 µM [falling, single point] | 35.5 µM [falling, single point]
CCCC(=O)Nc1ccc(Br)c(Cl)c1 | 14.1 µM [rising, single point] | 
CCC(c1nnnn1Cc1ccco1)N(CCc1ccccc1)Cc1cc2cc(C)ccc2[nH]c1=O (stereo unspecified) | 12.6 µM [rising, partial curve] | 11.2 µM [rising, partial curve]
CSc1ccc(CN(C)CC(=O)Nc2c(F)cccc2F)cc1 |  | 0.501 µM [rising, full curve, poor fit]
O=C(Nc1ccn(-c2ccccc2)n1)c1ccc(Cl)cc1 | 15.8 µM [rising, partial curve] | 2 µM [rising, single point]
COc1ccc(S(=O)(=O)NCCc2c(C)nn(C)c2Oc2ccccc2)cc1 | 5.62 µM [rising, partial curve, poor fit] | 
Nc1ccc(O)c(C(=O)O)c1 |  | 0.0631 µM [falling, full curve, poor fit]
Cc1ccc(C(=O)COC(=O)CNC(=O)c2cccs2)cc1C |  | 5.62 µM [rising, single point]
CCCN(C(=O)Cc1nc(N)n[nH]1)C1(C(=O)Nc2ccccc2C)CCCCC1 | 2.51 µM [falling, partial curve] | 3.16 µM [falling, partial curve, poor fit]
Cc1ccc2oc3c(c(=O)c2c1)C(c1cccc(O)c1)N(c1ccccn1)C3=O (stereo unspecified) | 2.24 µM [rising, full curve, poor fit] | 
COc1ccc(N2C(=O)CC(N(CCc3ccccc3)C(=O)/C=C/C(=O)O)C2=O)cc1 (stereo unspecified) | 20 µM [falling, partial curve, poor fit] | 
COCCNC(=O)C1CCC(Cn2c(=S)[nH]c3ccccc3c2=O)CC1 (stereo unspecified) | 2 µM [rising, partial curve] | 
Cc1ccc(C(=O)/C=C/c2cn(CN3CCN(C)CC3)c3ccccc23)cc1 | 35.5 µM [rising, single point] | 
Cc1ccc(Cn2nnc3c(=O)[nH]c(C4CCN(S(=O)(=O)c5cc(C)ccc5C)CC4)nc32)cc1 | 11.2 µM [falling, partial curve] | 35.5 µM [falling, single point]
CC(Nc1cccc2ccccc12)C(=O)N/N=C/c1ccc([N+](=O)[O-])cc1 (stereo unspecified) | 35.5 µM [rising, partial curve] | 
O=C(CSc1nnc(-c2ccc(OC(F)F)cc2)o1)N1CCOCC1 | 0.0794 µM [rising, full curve, poor fit] | 1 µM [rising, partial curve, poor fit]

Twelve entries from above, in CSV form.
Structure (SMILES),AC50 [1],AC50 [2]
CSc1ccc(CN(C)CC(=O)Nc2c(F)cccc2F)cc1,,"0.501 µM [rising, full curve, poor fit]"
O=C(Nc1ccn(-c2ccccc2)n1)c1ccc(Cl)cc1,"15.8 µM [rising, partial curve]","2 µM [rising, single point]"
COc1ccc(S(=O)(=O)NCCc2c(C)nn(C)c2Oc2ccccc2)cc1,"5.62 µM [rising, partial curve, poor fit]",
Nc1ccc(O)c(C(=O)O)c1,,"0.0631 µM [falling, full curve, poor fit]"
Cc1ccc(C(=O)COC(=O)CNC(=O)c2cccs2)cc1C,,"5.62 µM [rising, single point]"
CCCN(C(=O)Cc1nc(N)n[nH]1)C1(C(=O)Nc2ccccc2C)CCCCC1,"2.51 µM [falling, partial curve]","3.16 µM [falling, partial curve, poor fit]"
Cc1ccc2oc3c(c(=O)c2c1)C(c1cccc(O)c1)N(c1ccccn1)C3=O (stereo unspecified),"2.24 µM [rising, full curve, poor fit]",
COc1ccc(N2C(=O)CC(N(CCc3ccccc3)C(=O)/C=C/C(=O)O)C2=O)cc1 (stereo unspecified),"20 µM [falling, partial curve, poor fit]",
COCCNC(=O)C1CCC(Cn2c(=S)[nH]c3ccccc3c2=O)CC1 (stereo unspecified),"2 µM [rising, partial curve]",
Cc1ccc(C(=O)/C=C/c2cn(CN3CCN(C)CC3)c3ccccc23)cc1,"35.5 µM [rising, single point]",
Cc1ccc(Cn2nnc3c(=O)[nH]c(C4CCN(S(=O)(=O)c5cc(C)ccc5C)CC4)nc32)cc1,"11.2 µM [falling, partial curve]","35.5 µM [falling, single point]"
CC(Nc1cccc2ccccc12)C(=O)N/N=C/c1ccc([N+](=O)[O-])cc1 (stereo unspecified),"35.5 µM [rising, partial curve]",

Later entries.

Structure (SMILES) | AC50 [1] | AC50 [2]
Cc1nn(C)c(C(=O)N/N=C/c2ccc(C(F)(F)F)cc2)c1[N+](=O)[O-] |  | 12.6 µM [rising, partial curve]
CCc1c(C)nc2ncnn2c1NCCc1ccc(Cl)cc1 | 0.501 µM [falling, partial curve, poor fit] | 
CCOC(=O)CSc1nc2cccnc2n1C | 0.00316 µM [falling, full curve, poor fit] | 0.00398 µM [falling, full curve, poor fit]
CN(C(=O)COC(=O)c1cc(NS(=O)(=O)c2cc([N+](=O)[O-])ccc2Cl)ccc1O)C1CCCCC1 | 35.5 µM [rising, single point] | 
c1ccc2c(c1)CSc1sccc1C2=C1CCNCC1 | 17.8 µM [rising, single point] | 17.8 µM [rising, single point]
Clc1ccccc1CNc1ncnc2c1c(-c1ccccc1)cn2-c1ccccc1 | 35.5 µM [rising, single point] | 
CCOc1ccc(/C=N/OC(C)C(=O)NCc2ccc3c(c2)OCO3)cc1 (stereo unspecified) | 17.8 µM [rising, partial curve] | 6.31 µM [rising, partial curve]
CCN(CC)CCOC(=O)C1(c2ccc([N+](=O)[O-])cc2)CCCC1 | 0.0282 µM [rising, full curve, poor fit] | 
O=C(O)c1cn(C2CC2)c2cc(N3CCN(S(=O)(=O)c4ccc5c(c4)OCCO5)CC3)c(F)cc2c1=O | 17.8 µM [rising, single point] | 35.5 µM [rising, single point]
O=C(c1cccs1)N1CCN(Cc2ccc3c(c2)OCO3)CC1 | 17.8 µM [rising, single point] | 11.2 µM [rising, single point]
CCOC(=O)c1c(NC(=O)c2cccs2)sc(CC)c1-c1cccs1 | 35.5 µM [rising, single point] | 31.6 µM [rising, single point]
CCSc1nc(CC)c2c(c1C#N)CCCC2 |  | 35.5 µM [rising, single point]
Cc1ccccc1OCc1nnc(SCc2cc(=O)c3cccc(F)c3[nH]2)n1C | 1.78 µM [falling, full curve] | 3.98 µM [falling, full curve, poor fit]
O=c1c2ccccc2nc(COc2ccccc2)n1/N=C/c1cn[nH]c1-c1ccccc1 | 22.4 µM [rising, single point] | 
Cc1ccnc(N2CCN(C(=O)CSc3nc4ccccc4nc3N3CCCCC3)CC2)c1 | 35.5 µM [rising, single point] | 11.2 µM [rising, partial curve]
O=C(c1ccc(CSc2nc3ccncc3[nH]2)cc1)N1CCCCC1 | 20 µM [rising, single point] | 11.2 µM [rising, single point]
COc1ccc(-n2c(C)cc(C(=O)CSc3nnc(-c4ccoc4C)n3C)c2C)cc1 | 31.6 µM [rising, single point] | 
COc1ccc2oc3cc(C)[n+]([O-])c(-c4ccc(Br)cc4)c3c2c1 | 14.1 µM [rising, partial curve] | 
CN(C)CCCN1c2ccccc2CCc2ccc(Cl)cc21 | 35.5 µM [rising, single point] and 12.6 µM [rising, partial curve] | 631 nM [falling, partial curve, poor fit] and 20 µM [falling, single point] and 8.91 µM [rising, partial curve]
CCCCOc1ccc(C(=O)NCC2(c3ccc(OC)cc3)CCOCC2)cc1 | 17.8 µM [rising, single point] | 
O=C(Nc1ncc2c(n1)-c1ccccc1OC2)c1ccc(F)cc1 |  | 0.355 µM [rising, full curve]
CCOc1cc(CNC(=O)NC2COc3ccc(OC)cc3C2)cc(OCC)c1OCC (stereo unspecified) |  | 0.0251 µM [rising, full curve, poor fit]
CCCCCCSc1nsc(NC(=O)CC(C)C)n1 | 22.4 µM [rising, single point] | 15.8 µM [rising, partial curve]
CC(=O)C1=C(c2ccc(C)c(C)c2)N(C(C)=O)n2c(nnc2-c2ccc(Cl)cc2)S1 | 22.4 µM [falling, single point] | 11.2 µM [falling, partial curve]
Cc1cccc(OCC(=O)Nc2ccc3c(c2)OCO3)c1C | 31.6 µM [rising, single point] | 35.5 µM [rising, single point]
Cc1cccc(CNC(=O)CCCn2c(=O)c3cccn3c3ccc(F)cc32)c1 | 14.1 µM [rising, partial curve, poor fit] | 0.1 µM [rising, full curve, poor fit]
